Assay results as given in doi:10.1101/2024.11.11.622870.
Where a chain is given by its changes, count along the chain named. These are yes or no findings as the source states them, for the method shown. In cells and extracts the contact can be indirect. Here binding means that the protein was enriched with, or labelled near, the bait; the list need not be complete. For part of these data: A no says only that the protein was not detected with the bait. Sequences can lack the tags named with a protein.

Amino acid sequences for entries named in this document (tags omitted). A change or cut given only in a name is not applied to a line headed by its entry.
UniProt P05556: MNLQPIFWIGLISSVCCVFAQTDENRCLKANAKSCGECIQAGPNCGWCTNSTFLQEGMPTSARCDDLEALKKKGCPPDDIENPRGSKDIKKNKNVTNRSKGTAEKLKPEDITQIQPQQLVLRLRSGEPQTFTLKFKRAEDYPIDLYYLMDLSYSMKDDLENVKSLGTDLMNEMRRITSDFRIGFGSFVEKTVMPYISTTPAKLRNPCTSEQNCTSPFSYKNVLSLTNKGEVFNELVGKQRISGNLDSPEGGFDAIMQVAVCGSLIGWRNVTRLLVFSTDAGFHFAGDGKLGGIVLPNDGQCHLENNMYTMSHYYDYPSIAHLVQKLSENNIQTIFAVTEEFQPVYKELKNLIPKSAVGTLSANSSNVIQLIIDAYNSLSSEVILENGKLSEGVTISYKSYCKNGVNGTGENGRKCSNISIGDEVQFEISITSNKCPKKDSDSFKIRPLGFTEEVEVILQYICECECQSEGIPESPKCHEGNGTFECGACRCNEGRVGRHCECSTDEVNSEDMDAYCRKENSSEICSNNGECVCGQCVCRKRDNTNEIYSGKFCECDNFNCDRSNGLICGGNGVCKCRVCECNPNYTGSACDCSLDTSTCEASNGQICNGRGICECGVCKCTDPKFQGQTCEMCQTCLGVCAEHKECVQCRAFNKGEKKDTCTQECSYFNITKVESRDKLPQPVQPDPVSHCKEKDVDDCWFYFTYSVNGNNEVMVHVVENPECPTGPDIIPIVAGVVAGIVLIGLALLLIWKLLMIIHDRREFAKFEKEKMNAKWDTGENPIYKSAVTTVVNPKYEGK

How the values were obtained:
[1] = biological target: T1, mycBirA*-Rab25 wt (UniProt P57735); test: proximity labelling
T1 sequence: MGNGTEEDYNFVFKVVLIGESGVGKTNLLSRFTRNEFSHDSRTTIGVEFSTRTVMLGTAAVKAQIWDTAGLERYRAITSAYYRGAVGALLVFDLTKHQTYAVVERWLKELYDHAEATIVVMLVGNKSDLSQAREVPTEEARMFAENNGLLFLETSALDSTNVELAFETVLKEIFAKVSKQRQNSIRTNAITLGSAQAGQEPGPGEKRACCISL

[2] = biological target: T2, mycBirA*-Rab25 DN (T26N) (UniProt P57735); test: proximity labelling
T2 sequence: T1 sequence with T26N

binding [1] | binding [2] | Substance
binds |  | integrin β1 (from UniProt P05556 21-798) (receptor)
binds | no binding | FMNL1 (from UniProt O95466-2)
